Construct, isoform or probe ends are uncertain for at least one entry. At least one result comes from cells or an extract, where the contact may be indirect. For part of these data: A negative result means that nothing was seen under these conditions.
Assays:
[1] = target: LYAR (endogenous, K562 nuclear extract + identified by anti-LYAR supershift) (Homo sapiens (K562 cells)) (UniProt Q9NX58); test: competition EMSA; conditions: LightShift kit binding buffer, 15-20 min room temperature, 6% native PAGE in 0.5x TBE, protein in an extract
[2] = target: LYAR (endogenous, K562 nuclear extract + identified by anti-LYAR supershift) (Homo sapiens (K562 cells)) (UniProt Q9NX58); test: EMSA supershift; conditions: anti-LYAR antibody supershifts bands I and II, control IgG does not, LightShift kit binding buffer, 15-20 min room temperature, 6% native PAGE in 0.5x TBE, protein in an extract, label: 5'-biotin on the printed strand

Sequence: AACGTCTGAGGTTATCAATAAGCT (double strand) [gamma-globin 5'UTR WT cold competitor]
- binding result ([1]; 10-, 50-, 100-fold excess, band I easily competed): binds

Sequence: AACGTCTGAGGTTATCAATAAGCT (double strand) [gamma-globin 5'UTR WT probe (+17 to +40)]
- binding result [2]: binds

Sequence: AACGTCTGATTCCGTCAATAAGCT (double strand) [gamma-globin 5'UTR Mut cold competitor]
- binding result ([1]; up to 100-fold excess, neither band I nor II competed): no binding
